Two substances from article doi:10.1101/2021.03.20.435662 can be followed below.

Protein sequences, listed by entry. Tags and fused reporters are not part of them. Lines headed by an entry give the natural chain unless they say otherwise; changes in a name come on top.
UniProt F4K465: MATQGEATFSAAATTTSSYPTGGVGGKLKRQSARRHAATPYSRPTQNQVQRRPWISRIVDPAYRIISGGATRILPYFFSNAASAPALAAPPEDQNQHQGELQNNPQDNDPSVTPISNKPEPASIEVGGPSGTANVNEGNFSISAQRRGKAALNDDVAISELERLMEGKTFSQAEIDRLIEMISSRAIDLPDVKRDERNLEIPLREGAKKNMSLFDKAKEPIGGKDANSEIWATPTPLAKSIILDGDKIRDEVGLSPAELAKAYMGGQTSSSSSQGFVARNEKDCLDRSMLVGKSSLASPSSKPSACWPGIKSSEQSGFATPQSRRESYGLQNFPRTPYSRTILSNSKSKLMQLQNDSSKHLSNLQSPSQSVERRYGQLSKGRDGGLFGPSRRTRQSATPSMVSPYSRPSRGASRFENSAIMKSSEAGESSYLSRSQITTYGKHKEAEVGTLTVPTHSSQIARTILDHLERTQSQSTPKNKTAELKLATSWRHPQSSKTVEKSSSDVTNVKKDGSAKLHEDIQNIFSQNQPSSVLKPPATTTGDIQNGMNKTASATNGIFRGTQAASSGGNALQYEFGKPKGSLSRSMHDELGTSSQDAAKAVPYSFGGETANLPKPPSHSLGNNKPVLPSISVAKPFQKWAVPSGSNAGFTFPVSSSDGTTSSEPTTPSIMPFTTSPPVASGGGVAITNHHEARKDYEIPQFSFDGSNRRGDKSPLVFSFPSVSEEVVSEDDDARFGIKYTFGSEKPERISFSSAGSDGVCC

Test [1] deals with T1, CRWN2, BiFC fusion (half of YFP) (Arabidopsis thaliana) (UniProt Q9SAF6).
T1 sequence: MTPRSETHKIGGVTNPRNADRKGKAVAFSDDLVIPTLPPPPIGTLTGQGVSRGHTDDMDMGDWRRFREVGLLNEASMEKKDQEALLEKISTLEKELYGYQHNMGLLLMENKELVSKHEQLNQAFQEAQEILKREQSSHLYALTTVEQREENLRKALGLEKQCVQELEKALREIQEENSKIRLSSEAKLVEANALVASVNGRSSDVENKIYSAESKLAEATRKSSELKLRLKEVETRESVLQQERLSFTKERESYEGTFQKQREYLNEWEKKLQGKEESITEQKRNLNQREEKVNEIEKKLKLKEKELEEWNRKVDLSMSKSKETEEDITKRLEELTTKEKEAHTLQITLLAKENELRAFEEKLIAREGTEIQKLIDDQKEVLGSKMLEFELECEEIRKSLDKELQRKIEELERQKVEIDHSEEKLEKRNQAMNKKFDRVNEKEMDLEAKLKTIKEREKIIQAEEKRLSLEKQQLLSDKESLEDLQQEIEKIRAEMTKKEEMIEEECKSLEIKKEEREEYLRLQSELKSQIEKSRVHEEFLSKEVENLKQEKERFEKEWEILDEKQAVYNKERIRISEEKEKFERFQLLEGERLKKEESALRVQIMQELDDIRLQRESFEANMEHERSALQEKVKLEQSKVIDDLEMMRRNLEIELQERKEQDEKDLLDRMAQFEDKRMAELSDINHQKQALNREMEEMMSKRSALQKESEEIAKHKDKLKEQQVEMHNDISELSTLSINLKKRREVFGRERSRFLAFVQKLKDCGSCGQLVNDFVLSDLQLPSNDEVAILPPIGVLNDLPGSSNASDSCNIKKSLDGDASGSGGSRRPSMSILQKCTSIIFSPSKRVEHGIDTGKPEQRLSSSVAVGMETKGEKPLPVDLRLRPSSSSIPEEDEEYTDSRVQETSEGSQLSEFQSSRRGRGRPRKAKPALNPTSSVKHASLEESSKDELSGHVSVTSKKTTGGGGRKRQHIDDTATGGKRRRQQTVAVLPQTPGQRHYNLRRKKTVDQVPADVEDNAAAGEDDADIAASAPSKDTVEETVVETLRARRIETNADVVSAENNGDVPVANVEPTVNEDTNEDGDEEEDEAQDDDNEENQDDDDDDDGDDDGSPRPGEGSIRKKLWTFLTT
As to the kind of experiment: split reporter.

Test [2] concerns the target T2, CROWDED NUCLEI 1 (CRWN1), yeast two-hybrid fusion (Arabidopsis thaliana) (UniProt F4HRT5).
T2 sequence: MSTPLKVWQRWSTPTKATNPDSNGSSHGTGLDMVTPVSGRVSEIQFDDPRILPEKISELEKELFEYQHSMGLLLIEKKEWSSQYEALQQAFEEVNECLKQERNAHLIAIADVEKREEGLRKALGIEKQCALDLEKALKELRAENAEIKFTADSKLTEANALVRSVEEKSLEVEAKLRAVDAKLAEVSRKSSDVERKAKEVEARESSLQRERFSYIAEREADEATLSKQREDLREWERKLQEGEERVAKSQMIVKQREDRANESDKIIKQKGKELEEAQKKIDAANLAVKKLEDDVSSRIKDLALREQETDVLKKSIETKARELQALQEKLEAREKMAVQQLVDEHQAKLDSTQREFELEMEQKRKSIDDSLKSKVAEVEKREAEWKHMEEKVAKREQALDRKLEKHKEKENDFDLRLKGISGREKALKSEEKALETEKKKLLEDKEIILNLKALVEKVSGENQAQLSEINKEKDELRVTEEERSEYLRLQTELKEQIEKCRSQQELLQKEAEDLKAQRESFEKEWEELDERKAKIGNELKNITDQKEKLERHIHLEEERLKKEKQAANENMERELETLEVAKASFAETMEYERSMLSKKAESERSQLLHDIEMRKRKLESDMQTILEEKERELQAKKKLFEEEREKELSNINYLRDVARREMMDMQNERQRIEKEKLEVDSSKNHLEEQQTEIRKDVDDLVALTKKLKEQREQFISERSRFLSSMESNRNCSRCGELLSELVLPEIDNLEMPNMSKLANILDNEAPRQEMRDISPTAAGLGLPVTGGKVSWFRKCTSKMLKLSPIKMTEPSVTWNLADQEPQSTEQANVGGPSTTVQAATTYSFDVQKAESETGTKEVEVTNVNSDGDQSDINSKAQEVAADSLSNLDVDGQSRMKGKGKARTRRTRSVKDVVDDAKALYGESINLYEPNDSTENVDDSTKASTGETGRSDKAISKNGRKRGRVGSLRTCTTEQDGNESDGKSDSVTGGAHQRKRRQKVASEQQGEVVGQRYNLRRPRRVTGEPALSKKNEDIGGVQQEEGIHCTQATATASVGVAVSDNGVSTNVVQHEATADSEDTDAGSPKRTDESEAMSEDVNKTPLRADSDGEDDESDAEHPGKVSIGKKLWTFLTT
The experiment in a line: two-hybrid.

Test [3] concerns the target T3, CROWDED NUCLEI 3 (CRWN3), yeast two-hybrid fusion (Arabidopsis thaliana) (UniProt Q9CA42).
T3 sequence: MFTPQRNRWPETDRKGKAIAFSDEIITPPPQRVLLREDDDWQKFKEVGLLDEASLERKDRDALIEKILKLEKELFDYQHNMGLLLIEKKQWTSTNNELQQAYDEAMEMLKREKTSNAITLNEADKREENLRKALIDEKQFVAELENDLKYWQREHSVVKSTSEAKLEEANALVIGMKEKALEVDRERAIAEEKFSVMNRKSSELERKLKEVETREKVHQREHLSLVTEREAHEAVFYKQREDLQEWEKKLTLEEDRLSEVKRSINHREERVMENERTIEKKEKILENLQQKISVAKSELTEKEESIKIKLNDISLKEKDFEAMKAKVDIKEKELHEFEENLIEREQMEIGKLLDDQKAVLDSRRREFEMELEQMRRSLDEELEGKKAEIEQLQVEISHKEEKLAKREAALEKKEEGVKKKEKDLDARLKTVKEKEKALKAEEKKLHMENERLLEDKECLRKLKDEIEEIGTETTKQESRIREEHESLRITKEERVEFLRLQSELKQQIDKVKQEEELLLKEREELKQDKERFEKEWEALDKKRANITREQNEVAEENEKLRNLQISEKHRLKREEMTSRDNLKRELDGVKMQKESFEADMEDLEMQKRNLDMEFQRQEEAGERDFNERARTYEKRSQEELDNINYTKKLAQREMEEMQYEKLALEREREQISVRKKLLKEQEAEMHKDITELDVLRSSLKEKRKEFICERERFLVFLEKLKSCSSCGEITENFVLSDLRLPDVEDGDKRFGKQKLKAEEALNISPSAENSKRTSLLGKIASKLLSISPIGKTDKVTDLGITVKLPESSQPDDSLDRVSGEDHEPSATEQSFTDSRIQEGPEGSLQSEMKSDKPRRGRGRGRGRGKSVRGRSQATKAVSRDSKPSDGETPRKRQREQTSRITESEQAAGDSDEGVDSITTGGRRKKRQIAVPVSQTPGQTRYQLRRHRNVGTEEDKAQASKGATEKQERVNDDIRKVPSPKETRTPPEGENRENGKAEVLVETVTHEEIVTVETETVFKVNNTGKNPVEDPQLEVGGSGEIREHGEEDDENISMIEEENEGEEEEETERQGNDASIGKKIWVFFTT
The experiment in a line: two-hybrid.

The target in test [4] is T4, CROWDED NUCLEI 4 (CRWN4), yeast two-hybrid fusion (Arabidopsis thaliana) (UniProt Q9FLH0).
T4 sequence: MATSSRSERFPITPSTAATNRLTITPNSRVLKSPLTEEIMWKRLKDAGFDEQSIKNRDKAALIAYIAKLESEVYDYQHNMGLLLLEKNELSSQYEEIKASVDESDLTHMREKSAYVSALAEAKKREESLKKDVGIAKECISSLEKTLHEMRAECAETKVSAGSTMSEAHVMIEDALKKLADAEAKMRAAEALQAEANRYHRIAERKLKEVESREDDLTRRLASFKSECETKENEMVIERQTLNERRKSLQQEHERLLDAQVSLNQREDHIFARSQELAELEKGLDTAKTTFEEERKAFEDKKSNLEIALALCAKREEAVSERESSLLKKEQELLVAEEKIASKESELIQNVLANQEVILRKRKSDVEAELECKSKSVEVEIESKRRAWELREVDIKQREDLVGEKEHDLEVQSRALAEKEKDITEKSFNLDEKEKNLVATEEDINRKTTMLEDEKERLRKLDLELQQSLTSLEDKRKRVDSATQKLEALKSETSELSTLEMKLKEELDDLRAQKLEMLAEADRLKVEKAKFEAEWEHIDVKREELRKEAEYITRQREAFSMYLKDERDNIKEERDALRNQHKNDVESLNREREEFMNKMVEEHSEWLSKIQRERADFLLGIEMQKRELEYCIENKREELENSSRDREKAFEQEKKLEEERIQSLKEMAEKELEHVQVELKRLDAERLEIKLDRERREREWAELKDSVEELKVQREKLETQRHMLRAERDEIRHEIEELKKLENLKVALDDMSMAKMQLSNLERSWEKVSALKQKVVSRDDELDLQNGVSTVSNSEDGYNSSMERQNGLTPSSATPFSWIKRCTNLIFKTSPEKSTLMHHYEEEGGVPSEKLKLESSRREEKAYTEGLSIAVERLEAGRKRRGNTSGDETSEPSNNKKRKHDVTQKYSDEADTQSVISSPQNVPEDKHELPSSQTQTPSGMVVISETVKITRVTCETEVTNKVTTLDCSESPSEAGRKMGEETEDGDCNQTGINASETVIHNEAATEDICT
The experiment in a line: two-hybrid.

Test [5] concerns the target T5, CROWDED NUCLEI 2 (CRWN2), yeast two-hybrid fusion (Arabidopsis thaliana) (UniProt Q9SAF6).
T5 sequence: T1 sequence
The experiment in a line: two-hybrid.

Results are given in words; binding and its absence hold for the method and conditions named. For some assays here: A result given as binding can be weak or reduced; the word gives no strength. Where a sequence is shown, tags or fusion partners need not be part of it. For some assays here: In cells and extracts the contact can be indirect.

Regarding “NUP82, BiFC fusion (half of YFP) (from UniProt F4K465)”, the binding result in test [1] is given as “binds”.

As to “NUP82, yeast two-hybrid fusion (from UniProt F4K465)”, the binding entry in test [2] was “binds”; in test [3] it was “binds”; in test [4], “no binding”; in test [5] it was “binds”.
